In article PMC7862700:
This is a selection; strong and weak results do not stand in their true shares. For some assays here: At the low end of the ranking the order means little. Some of the results follow. For some assays here: The source does not settle which construct or isoform was used.

Chains of the proteins cited; added tags and fusions are not shown. Lines headed by an entry give the natural chain unless they say otherwise; changes in a name come on top.
UniProt P50549: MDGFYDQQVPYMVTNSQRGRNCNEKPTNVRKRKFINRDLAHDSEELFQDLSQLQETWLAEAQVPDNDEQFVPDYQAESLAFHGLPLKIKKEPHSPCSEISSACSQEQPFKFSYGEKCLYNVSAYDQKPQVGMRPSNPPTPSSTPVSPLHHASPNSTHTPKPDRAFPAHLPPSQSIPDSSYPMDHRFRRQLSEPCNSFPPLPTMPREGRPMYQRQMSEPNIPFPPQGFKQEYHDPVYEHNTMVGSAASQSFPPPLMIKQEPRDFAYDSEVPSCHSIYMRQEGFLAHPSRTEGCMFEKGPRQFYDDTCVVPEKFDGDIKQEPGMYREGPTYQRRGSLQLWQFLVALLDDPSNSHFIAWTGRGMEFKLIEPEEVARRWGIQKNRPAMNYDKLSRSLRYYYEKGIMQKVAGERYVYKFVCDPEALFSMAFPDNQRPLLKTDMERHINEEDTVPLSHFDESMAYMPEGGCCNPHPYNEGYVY

Key:
Assay in all cases: DAPPL (digital affinity profiling via proximity ligation, sequencing)
Conditions in all cases: 10 mM Tris-HCl pH 7.5, 50 mM NaCl, 1 mM DTT, 4% glycerol, room temperature, 30 min; GST-TFs on glutathione beads, 16-mer random dsDNA library, 0.1% …; high values mean tight binding; double strand, one strand shown; scale: fold enrichment (6-mer frequency, TF over GST control)
ETV4 = biological target: T1, ETV4 (UniProt P43268)
T1 sequence: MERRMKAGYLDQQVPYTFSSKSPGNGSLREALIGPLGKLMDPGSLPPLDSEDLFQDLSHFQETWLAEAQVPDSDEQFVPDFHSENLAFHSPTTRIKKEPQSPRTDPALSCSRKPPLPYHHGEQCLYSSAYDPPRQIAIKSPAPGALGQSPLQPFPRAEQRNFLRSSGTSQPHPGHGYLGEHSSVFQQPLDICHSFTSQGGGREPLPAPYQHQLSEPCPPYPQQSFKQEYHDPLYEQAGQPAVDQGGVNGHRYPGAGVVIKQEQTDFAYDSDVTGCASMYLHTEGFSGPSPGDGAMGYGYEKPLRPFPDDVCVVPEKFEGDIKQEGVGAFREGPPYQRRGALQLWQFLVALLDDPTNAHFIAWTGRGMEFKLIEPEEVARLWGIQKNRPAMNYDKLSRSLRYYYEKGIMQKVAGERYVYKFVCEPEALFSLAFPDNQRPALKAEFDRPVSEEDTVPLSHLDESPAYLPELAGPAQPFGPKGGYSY

ERG = biological target: T2, ERG (UniProt P11308)
T2 sequence: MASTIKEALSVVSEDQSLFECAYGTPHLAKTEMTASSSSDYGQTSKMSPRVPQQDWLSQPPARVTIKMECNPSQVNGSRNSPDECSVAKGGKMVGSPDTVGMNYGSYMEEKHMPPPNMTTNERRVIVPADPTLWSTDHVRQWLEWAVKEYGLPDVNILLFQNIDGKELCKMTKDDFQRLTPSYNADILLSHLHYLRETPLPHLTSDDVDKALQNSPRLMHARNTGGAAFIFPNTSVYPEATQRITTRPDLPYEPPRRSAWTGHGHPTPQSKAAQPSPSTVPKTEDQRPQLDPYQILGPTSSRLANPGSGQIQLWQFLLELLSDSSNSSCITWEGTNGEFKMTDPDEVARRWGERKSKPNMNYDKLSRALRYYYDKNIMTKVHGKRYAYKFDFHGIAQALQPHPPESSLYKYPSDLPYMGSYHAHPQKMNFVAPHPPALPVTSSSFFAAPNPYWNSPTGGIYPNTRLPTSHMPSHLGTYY

ETV1 = ETV1 (UniProt P50549)
ERF = biological target: T3, ERF (UniProt P50548)
T3 sequence: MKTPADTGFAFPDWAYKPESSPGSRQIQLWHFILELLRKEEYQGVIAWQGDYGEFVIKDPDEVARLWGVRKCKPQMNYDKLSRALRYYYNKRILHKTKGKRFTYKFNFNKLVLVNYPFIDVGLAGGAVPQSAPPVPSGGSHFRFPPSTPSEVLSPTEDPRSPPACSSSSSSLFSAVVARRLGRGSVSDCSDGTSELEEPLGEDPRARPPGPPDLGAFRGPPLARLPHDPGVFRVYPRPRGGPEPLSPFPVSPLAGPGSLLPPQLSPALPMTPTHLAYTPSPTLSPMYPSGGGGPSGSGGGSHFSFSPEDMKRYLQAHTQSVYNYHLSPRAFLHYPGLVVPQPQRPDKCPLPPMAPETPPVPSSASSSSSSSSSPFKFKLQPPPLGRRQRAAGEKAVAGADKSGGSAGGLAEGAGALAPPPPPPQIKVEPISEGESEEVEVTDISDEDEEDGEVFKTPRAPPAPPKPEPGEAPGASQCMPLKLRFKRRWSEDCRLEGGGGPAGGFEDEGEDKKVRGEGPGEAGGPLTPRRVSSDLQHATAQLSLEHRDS

| Sequence | binding signal (ETV4) | binding signal (ERG) | binding signal (ETV1) | binding signal (ERF) |
| --- | --- | --- | --- | --- |
| ATTTCA | 1.3 |  |  |  |
| TAGTAC | 1.16 | 1.24 |  |  |
| CTGTTA | 1.35 |  |  |  |
| TAATAG | 1.18 | 1.11 |  |  |
| AACATG | 1.11 | 1.16 |  |  |
| TGTAGC | 1.23 | 1.11 |  |  |
| TCTTCA | 1.27 | 1.16 |  |  |
| TTCGTA | 1.44 | 1.38 |  |  |
| TAAAGA | 1.13 | 1.14 |  |  |
| TTCTTT | 1.2 | 1.27 |  |  |
| CCCTCC | 1.46 | 1.41 |  |  |
| TGGTAG | 1.11 | 1 |  |  |
| TGGATG | 1.36 |  |  |  |
| TAGGCT | 1.11 | 1.23 |  |  |
| TTTTGC | 1.37 |  |  |  |
| TCCTAC | 1.55 | 1.42 |  |  |
| TGGTAT | 1.34 | 1.31 |  |  |
| AATGTC | 1.24 | 1.27 |  |  |
| CCACGC | 1.2 | 1.16 |  |  |
| ACTAAG | 1.05 |  |  |  |
| TAGTAA | 0.993 | 0.995 |  |  |
| AGTTCC | 2.03 | 2.2 |  |  |
| ACGCCC | 1.18 | 1.11 |  |  |
| CTGAGC | 1.18 | 1.09 |  |  |

| Sequence | binding signal (ETV4) | binding signal (ERG) | binding signal (ETV1) | binding signal (ERF) |
| --- | --- | --- | --- | --- |
| TGGACC | 1.1 | 1.04 |  |  |
| CGTTAC | 1.14 | 1.11 |  |  |
| CGACAC | 1.16 | 1.23 |  |  |
| ATACCT | 1.13 | 1.05 |  |  |
| TCTTAA | 1.27 | 1.21 |  |  |
| CCCTAA | 1.17 | 1.17 |  |  |
| GATCCT | 1.31 | 1.38 |  |  |
| ACCGAA | 1.04 | 0.999 |  |  |
| CCATAA | 1.16 | 1.17 |  |  |
| TATGGA | 1.15 | 1.15 |  |  |
| GTTTGG | 1.05 | 0.988 |  |  |
| TTATAG | 1.24 | 1.04 |  |  |
| ACTCCT | 1.46 | 1.45 |  |  |
| ATTAGC | 1.18 | 1.15 |  |  |
| CATCTT | 1.19 | 1.27 |  |  |
| CTCTCA | 1.5 | 1.36 |  |  |
| CTTGCC | 1.33 | 1.24 |  |  |
| CGTCCG | 1.35 | 1.27 |  |  |
| CATCTA | 1.16 | 1.11 |  |  |
| CTTTTA | 1.31 | 1.28 |  |  |
| ACGTTC | 1.35 | 1.39 |  |  |
| TTGCTA | 1.3 | 1.26 |  |  |
| TGCTAC | 1.3 | 1.27 |  |  |
| TTCGTT | 1.29 | 1.25 |  |  |

4 entries from above, comma-delimited:
Sequence,binding signal (ETV4),binding signal (ERG),binding signal (ETV1),binding signal (ERF)
ACTCCT,1.46,1.45,,
ATTAGC,1.18,1.15,,
CATCTT,1.19,1.27,,
CTCTCA,1.5,1.36,,

Continued.

| Sequence | binding signal (ETV4) | binding signal (ERG) | binding signal (ETV1) | binding signal (ERF) |
| --- | --- | --- | --- | --- |
| CACGAA | 1.05 | 1.1 |  |  |
| AACAAA | 1.14 | 1.18 |  |  |
| CGACCT | 1.6 | 1.46 |  |  |
| TATTCG | 1.11 | 1.14 |  |  |
| TATTAA | 1.12 | 1.12 |  |  |
| TAAGCT | 1.26 | 1.18 |  |  |
| TTAGTT | 1.33 | 1.24 |  |  |
| TGTACT | 1.49 | 1.24 |  |  |
| ATTGAA | 1.05 | 1.05 |  |  |
| TTGTCT | 1.21 | 1.15 |  |  |
| CATACT | 1.34 | 1.27 |  |  |
| CCTCTA | 1.41 | 1.32 |  |  |
| CCTCCC | 1.57 | 1.47 |  |  |
| TTTGGT | 1.24 | 1.31 |  |  |
| CCGGTA | 1.48 | 1.7 |  |  |
| ATAAAC | 1.11 | 1.11 |  |  |
| ACATCT | 1.28 | 1.34 |  |  |
| TGCTGT | 1.03 | 0.991 |  |  |
| CGCCGA | 1.19 | 1.1 |  |  |
| TCTAGC | 1.32 | 1.32 |  |  |
| GCTTGC | 1.21 | 1.14 |  |  |
| GATTTC | 1.67 | 2.15 |  |  |
| TTTATA | 1.44 | 1.29 |  |  |
| CGCTTT | 1.18 | 1.15 |  |  |

| Sequence | binding signal (ETV4) | binding signal (ERG) | binding signal (ETV1) | binding signal (ERF) |
| --- | --- | --- | --- | --- |
| AGCCTC | 1.3 | 1.21 |  |  |
| GAACCC | 1.07 | 1.18 |  |  |
| TGTTCT | 1.29 | 1.38 |  |  |
| CCTATC | 1.23 | 1.15 |  |  |
| TATCAT | 1.16 | 1.13 |  |  |
| CTTGGA | 1.24 | 1.17 |  |  |
| TCTGCA | 1.41 | 1.25 |  |  |
| AAATTA | 1.22 | 1.28 |  |  |
| CTAGCT | 1.23 | 1.3 | 1.24 |  |
| ACCCGC | 1.25 | 1.21 |  |  |
| CCCGAC | 1.3 | 1.43 |  |  |
| AAAGGT | 1.03 | 0.971 | 0.982 |  |
| CGTCTA | 1.22 | 1.37 |  |  |
| CGAAAG | 1.04 | 1.04 |  |  |
| TGCAAA | 1.04 | 1.14 |  |  |
| CTGGTT | 1.33 | 1.31 |  |  |
| GTCTCA | 1.36 | 1.36 |  |  |
| AACGCT | 1.3 | 1.19 |  |  |
| CCCTTT | 1.42 | 1.45 |  |  |
| CAGAAT | 0.973 | 0.99 | 1.04 |  |
| AAGTCT | 1.12 | 1.12 |  |  |
| GAACAC | 1.05 | 1.17 |  |  |
| CTGTAA | 1.03 | 0.994 |  |  |
| ATTTAC | 1.29 | 1.27 | 1.22 |  |

Reformatted: entries from further up.
Sequence,binding signal (ETV4),binding signal (ERG),binding signal (ETV1),binding signal (ERF)
TTCGTA,1.44,1.38,,
TAAAGA,1.13,1.14,,

Remaining list, next part:

| Sequence | binding signal (ETV4) | binding signal (ERG) | binding signal (ETV1) | binding signal (ERF) |
| --- | --- | --- | --- | --- |
| CGATGA | 1.04 | 0.985 | 0.965 |  |
| TTCACC | 1.38 | 1.38 |  |  |
| CCTACA | 1.32 | 1.21 |  |  |
| TTTACG | 1.26 | 1.26 |  |  |
| ATGAAA | 1.11 | 1.17 |  |  |
| GGCTAG | 1.01 | 1.1 |  |  |
| GCCTTG | 1.19 | 1.26 |  |  |
| TGGTTA | 1.03 | 1.13 | 1.01 |  |
| TTATAC | 1.42 | 1.35 |  |  |
| CGCTTC | 2.28 | 2.07 |  |  |
| CCGATA | 1.15 | 1.14 |  |  |
| CGAGTT | 1.07 | 0.98 |  |  |
| ACTTTT | 1.29 | 1.21 |  |  |
| TATGCG | 1.38 | 1.31 |  |  |
| ATTAAT | 1.23 | 1.21 |  |  |
| CTTATC | 1.21 | 1.1 |  |  |
| TCGCTT | 1.22 | 1.18 | 1.24 |  |
| GATTCT | 1.2 | 1.21 | 1.25 |  |
| CTGCCT | 1.26 | 1.18 | 1.24 |  |
| TGGCTT | 1.29 | 1.31 | 1.1 |  |
| TGAAAA | 1.02 | 0.953 | 1.01 |  |
| GGCCCC | 1.03 | 1.04 | 1.03 | 0.994 |
| GCTTAG | 1.13 | 1.18 | 1.27 |  |
| AATAGC | 1.13 | 1.12 | 1.13 | 1.25 |
